Results deposited as PubChem BioAssay AID504786 (Drosophila RNAi Screening Center, 2011).

- Screen: 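Positive regulators of HIF-driven reporter output in Drosophila cells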 (primary screen)
- Cells: Drosophila S2 cells with a stable HIF luciferase reporter
- Reagents: long dsRNA against Drosophila genes, about 0.2 µg dsRNA per well of a 384-well plate
- Duration: three days of knock-down, then 20 h of DFO before reading
- Conditions: desferrioxamine (DFO) at 100 µM, an iron chelator that mimics hypoxia, for 20 h
- Measured: 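Firefly luciferase driven by the mouse ldh-a hypoxia-response element, measured after 20 h of 100 µM DFO; z-scores per plate, higher means more signal lost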
- Direction: z-score: higher = stronger loss of HIF reporter signal
In all, the deposit lists about 21,000 reagents; below is a random part of those with a known target gene and a result. 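Primary screen; positive scores mean lost reporter signal, so the sign may be inverted from the usual convention.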 Not all columns of the deposit are shown.

For mfrn [DRSC15687] the deposit lists z-score, replicate 1 = 1.
Knock-down of CG15536 [DRSC15072] came out at: z-score, replicate 1 = -0.5.
CG34057 [DRSC08375] gave z-score, replicate 1 = -0.3.
Silencing of CG11076 [DRSC17197] resulted in: z-score, replicate 1 = -0.2.
Silencing of Prx6a [DRSC00565] gave: z-score, replicate 1 = -0.3.
Depletion of da [DRSC03517] came out at: z-score, replicate 1 = -0.1.
After knock-down of Trc8 [DRSC15437], the screen gave z-score, replicate 1 = -0.3.
With knock-down of CG17129 [DRSC08508], the screen gave z-score, replicate 1 = -0.2.
CG4098 [DRSC10399] scored z-score, replicate 1 = -0.3.
Clc [DRSC11116] gave z-score, replicate 1 = -0.4.
CG5767 [DRSC06953] showed z-score, replicate 1 = -0.2.
After knock-down of Nubp2 [DRSC11758], the screen gave z-score, replicate 1 = -0.3.
With knock-down of Ir48b [DRSC06320] the results were z-score, replicate 1 = -0.1.

In a second layout: results already given.
Gene,amplicon,"z-score, replicate 1"
Trc8,DRSC15437,-0.3
CG17129,DRSC08508,-0.2
CG4098,DRSC10399,-0.3
Clc,DRSC11116,-0.4
CG5767,DRSC06953,-0.2
Nubp2,DRSC11758,-0.3

Next records follow:
Against CG11674 [DRSC19414] the deposit lists z-score, replicate 1 = 0.
Silencing of Sms [DRSC10408] came out at: z-score, replicate 1 = -0.1.
Against Obp56h [DRSC06433] the deposit lists z-score, replicate 1 = 0.6.
spoon [DRSC18299] scored z-score, replicate 1 = -0.1.
Against CG34107 [DRSC14554] the deposit lists z-score, replicate 1 = -0.4.
Against CG15043 [DRSC19619] the deposit lists z-score, replicate 1 = -0.2.
p115 [DRSC18813] gave z-score, replicate 1 = -0.4.
Knock-down of CG4829 [DRSC19920] resulted in: z-score, replicate 1 = -0.3.
With knock-down of Tsp42Eg [DRSC06112], the record shows z-score, replicate 1 = -0.4.
For CG31556 (retired record) [DRSC12122] the deposit lists z-score, replicate 1 = -0.3.
Silencing of PpN58A [DRSC04642] resulted in: z-score, replicate 1 = -0.4.
After knock-down of CG10205 [DRSC05979] the results were z-score, replicate 1 = 1.7.
For Ube3a [DRSC10600] the deposit lists z-score, replicate 1 = 0.
Silencing of RpS12 [DRSC11270] resulted in: z-score, replicate 1 = 8.4.
Mbs [DRSC09414] showed z-score, replicate 1 = -0.6.
Depletion of Mbs [DRSC10525] came out at: z-score, replicate 1 = -0.3.
Mbs [DRSC10553] gave z-score, replicate 1 = -0.2.
With knock-down of hng3 [DRSC08367] the results were z-score, replicate 1 = -0.4.
CG13516 [DRSC04159] scored z-score, replicate 1 = -0.2.
Against CG17977 [DRSC06700], the values are z-score, replicate 1 = -0.3.
Against CG15657 [DRSC04248], the values are z-score, replicate 1 = -0.2.
Against CG33099 [DRSC15774] the deposit lists z-score, replicate 1 = -0.3.
With knock-down of CG4306 [DRSC10409] the results were z-score, replicate 1 = -0.2.
emb [DRSC03528] gave z-score, replicate 1 = -0.2.
With knock-down of dpr18 [DRSC19606], the record shows z-score, replicate 1 = -0.3.
For Cbl [DRSC10764], the values are z-score, replicate 1 = -0.2.
For Cbl [DRSC11111], the entry reads z-score, replicate 1 = 0.1.
